Among all 130,000 compounds or so, about 1,200 (0.92%) were called active. Listed are the inconclusive results; actives and inactives stand elsewhere. Calls follow the shape of the dose curve; as a rule, active = well fitted cell-killing curve with a large enough effect; inconclusive = small, poorly fitted or top-dose-only effect; inactive = no such curve, though single readings can be large or run the other way.
Test: qHTS Screen for Compounds that Selectively Target Cancer Cells with p53 Mutations: Cytotoxicity of p53ts Cells at the Permissive Temperature; also: nearly all actives have a fitted effect of over 55% in size
Settings: H1299-p53A138V at 32C, ATP luminescence viability, 24 h
Potency is read from the fitted curve at half-maximal effect.

SMILES	Potency
Cc1nc2ccc3ccccc3c2o1.O=[N+]([O-])c1cc([N+](=O)[O-])c(O)c([N+](=O)[O-])c1	inconclusive: 79.4 nM
